# The supplement of paper PMC8728848
# This is one part of the list.
# Columns and labels:
# Experiment in all cases: glycan array binding signal (z-score within array); higher = stronger binding
# Details in all cases: glycan notation: IUPAC condensed, linker removed
# Fuc(a1-2)[Gal(a1-3)]Gal = molecular target: Fuc(a1-2)[Gal(a1-3)]Gal
# Outline: (§1)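 The Consortium for Functional Glycomics database supplied 3228 glycan arrays, of which those lacking an available protein sequence were dropped. The binding signal, a within-array Z-score, was averaged across arrays of the same protein sequence and across linkers. Negative scores can be read as non-binding.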
# [1] = molecular target: Fuc(a1-2)[Gal(a1-3)]Gal(b1-3)GlcNAc
# Outline: as §1
# [2] = molecular target: Fuc(a1-2)[Gal(a1-3)]Gal(b1-3)GlcNAc(b1-2)Man(a1-3)[Fuc(a1-2)[Gal(a1-3)]Gal(b1-3)GlcNAc(b1-2)Man(a1-6)]Man(b1-4)GlcNAc(b1-4)GlcNAc
# Outline: as §1
# [3] = molecular target: Fuc(a1-2)[Gal(a1-3)]Gal(b1-3)GlcNAc(b1-3)GalNAc
# Outline: as §1
# [4] = molecular target: Fuc(a1-2)[Gal(a1-3)]Gal(b1-4)Glc
# Outline: as §1
# [5] = molecular target: Fuc(a1-2)[Gal(a1-3)]Gal(b1-4)GlcNAc
# Outline: as §1
# [6] = molecular target: Fuc(a1-2)[Gal(a1-3)]Gal(b1-4)GlcNAc(b1-2)Man(a1-3)[Fuc(a1-2)[Gal(a1-3)]Gal(b1-4)GlcNAc(b1-2)Man(a1-6)]Man(b1-4)GlcNAc(b1-4)GlcNAc
# Outline: as §1
# [7] = molecular target: Fuc(a1-2)[Gal(a1-3)]Gal(b1-4)GlcNAc(b1-2)Man(a1-3)[Fuc(a1-2)[Gal(a1-3)]Gal(b1-4)GlcNAc(b1-2)Man(a1-6)]Man(b1-4)GlcNAc(b1-4)[Fuc(a1-6)]GlcNAc
# Outline: as §1
# [8] = molecular target: Fuc(a1-2)[Gal(a1-3)]Gal(b1-4)GlcNAc(b1-3)GalNAc
# Outline: as §1
# [9] = molecular target: Fuc(a1-2)[Gal(a1-3)]Gal(b1-4)[Fuc(a1-3)]Glc
# Outline: as §1
# [10] = molecular target: Fuc(a1-2)[Gal(a1-3)]Gal(b1-4)[Fuc(a1-3)]GlcNAc
# Outline: as §1
# [11] = molecular target: Fuc(a1-2)[Gal(a1-3)]Gal(b1-4)[Fuc(a1-3)]GlcNAc(b1-3)GalNAc
# Outline: as §1
# [12] = molecular target: Fuc(a1-2)[Gal(a1-4)]Gal(b1-4)GlcNAc
# Outline: as §1
# [13] = molecular target: Fuc(a1-2)[GalNAc(a1-3)]Gal
# Outline: as §1
# [14] = molecular target: Fuc(a1-2)[GalNAc(a1-3)]Gal(b1-3)GalNAc(a1-3)[Fuc(a1-2)]Gal(b1-4)GlcNAc
# Outline: as §1
# [15] = molecular target: Fuc(a1-2)[GalNAc(a1-3)]Gal(b1-3)GlcNAc
# Outline: as §1
# [16] = molecular target: Fuc(a1-2)[GalNAc(a1-3)]Gal(b1-3)GlcNAc(b1-2)Man(a1-3)[Fuc(a1-2)[GalNAc(a1-3)]Gal(b1-3)GlcNAc(b1-2)Man(a1-6)]Man(b1-4)GlcNAc(b1-4)GlcNAc
# Outline: as §1
# [17] = molecular target: Fuc(a1-2)[GalNAc(a1-3)]Gal(b1-3)GlcNAc(b1-3)GalNAc
# Outline: as §1
# [18] = molecular target: Fuc(a1-2)[GalNAc(a1-3)]Gal(b1-4)Glc
# Outline: as §1
# [19] = molecular target: Fuc(a1-2)[GalNAc(a1-3)]Gal(b1-4)GlcNAc
# Outline: as §1
# [20] = molecular target: Fuc(a1-2)[GalNAc(a1-3)]Gal(b1-4)GlcNAc(b1-2)Man(a1-3)[Fuc(a1-2)[GalNAc(a1-3)]Gal(b1-4)GlcNAc(b1-2)Man(a1-6)]Man(b1-4)GlcNAc(b1-4)GlcNAc
# Outline: as §1
# [21] = molecular target: Fuc(a1-2)[GalNAc(a1-3)]Gal(b1-4)GlcNAc(b1-3)Gal(b1-4)GlcNAc
# Outline: as §1
# [22] = molecular target: Fuc(a1-2)[GalNAc(a1-3)]Gal(b1-4)GlcNAc(b1-3)Gal(b1-4)GlcNAc(b1-3)Gal(b1-4)GlcNAc
# Outline: as §1
# [23] = molecular target: Fuc(a1-2)[GalNAc(a1-3)]Gal(b1-4)GlcNAc(b1-3)GalNAc
# Outline: as §1
# [24] = molecular target: Fuc(a1-2)[GalNAc(a1-3)]Gal(b1-4)[Fuc(a1-3)]GlcNAc
# Outline: as §1
# [25] = molecular target: Fuc(a1-2)[GalNAc(a1-3)]Gal(b1-4)[Fuc(a1-3)]GlcNAc(b1-3)GalNAc
# Outline: as §1
# [26] = molecular target: Fuc(a1-2)[GalNAc(a1-4)]Gal(b1-4)GlcNAc
# Outline: as §1
# [27] = molecular target: Fuc(a1-2)[GalNAc(b1-3)]Gal
# Outline: as §1
# Fuc(a1-3)GlcNAc = molecular target: Fuc(a1-3)GlcNAc
# Outline: as §1
# [28] = molecular target: Fuc(a1-3)[Gal(b1-4)]Glc6S
# Outline: as §1
# [29] = molecular target: Fuc(a1-3)[Gal(b1-4)]GlcNAc
# Outline: as §1
# [30] = molecular target: Fuc(a1-3)[Gal(b1-4)]GlcNAc(b1-2)Man(a1-3)[Fuc(a1-3)[Gal(b1-4)]GlcNAc(b1-2)Man(a1-6)]Man(b1-4)GlcNAc(b1-4)GlcNAc
# Outline: as §1
# [31] = molecular target: Fuc(a1-3)[Gal(b1-4)]GlcNAc(b1-2)Man(a1-3)[Fuc(a1-3)[Gal(b1-4)]GlcNAc(b1-2)Man(a1-6)]Man(b1-4)GlcNAc(b1-4)[Fuc(a1-6)]GlcNAc
# Outline: as §1
# [32] = molecular target: Fuc(a1-3)[Gal(b1-4)]GlcNAc(b1-3)Gal(b1-3)[Fuc(a1-4)]GlcNAc
# Outline: as §1
# [33] = molecular target: Fuc(a1-3)[Gal(b1-4)]GlcNAc(b1-3)GalNAc
# Outline: as §1
# [34] = molecular target: Fuc(a1-3)[Gal(b1-4)]GlcNAc(b1-4)Gal(b1-4)[Fuc(a1-3)]GlcNAc
# Outline: as §1
# [35] = molecular target: Fuc(a1-3)[Gal(b1-4)]GlcNAc(b1-4)Gal(b1-4)[Fuc(a1-3)]GlcNAc(b1-4)Gal(b1-4)[Fuc(a1-3)]GlcNAc
# Outline: as §1
# [36] = molecular target: Fuc(a1-3)[Gal(b1-4)]GlcNAc(b1-6)[Gal(b1-3)GlcNAc(b1-3)]Gal(b1-4)Glc
# Outline: as §1
binder,measurement,setting,value
"rPitB (Streptococcus pneumoniae), A0A0I7U739 (protein) MSEIEIINAKKIYHDVPVIENLNITIPKGSLFTLLGASGCGKTTLLRMIAGFNSIKDGEFYFDDTKINNMEPSKRNIGLVFQNYAIFPHLTVRDNVAFGLMQKKVPKEELIQQTNKYLELMQIAQYAD",glycan array binding signal (z-score),Fuc(a1-2)[Gal(a1-3)]Gal,0.024
same,glycan array binding signal (z-score),[1],-0.113
same,glycan array binding signal (z-score),[2],0.062
same,glycan array binding signal (z-score),[3],-0.211
same,glycan array binding signal (z-score),[4],1.11
same,glycan array binding signal (z-score),[5],-0.419
same,glycan array binding signal (z-score),[6],-0.311
same,glycan array binding signal (z-score),[7],0.884
same,glycan array binding signal (z-score),[8],-0.866
same,glycan array binding signal (z-score),[9],0.03
same,glycan array binding signal (z-score),[10],1.26
same,glycan array binding signal (z-score),[11],0.687
same,glycan array binding signal (z-score),[12],-0.108
same,glycan array binding signal (z-score),[13],-0.263
same,glycan array binding signal (z-score),[14],-0.133
same,glycan array binding signal (z-score),[15],0.206
same,glycan array binding signal (z-score),[16],-0.52
same,glycan array binding signal (z-score),[17],0.403
same,glycan array binding signal (z-score),[18],-0.271
same,glycan array binding signal (z-score),[19],-0.509
same,glycan array binding signal (z-score),[20],0.481
same,glycan array binding signal (z-score),[21],-0.609
same,glycan array binding signal (z-score),[22],-0.442
same,glycan array binding signal (z-score),[23],-0.706
same,glycan array binding signal (z-score),[24],-0.499
same,glycan array binding signal (z-score),[25],0.771
same,glycan array binding signal (z-score),[26],0.875
same,glycan array binding signal (z-score),[27],-0.231
same,glycan array binding signal (z-score),Fuc(a1-3)GlcNAc,1
same,glycan array binding signal (z-score),[28],-0.329
same,glycan array binding signal (z-score),[29],0.422
same,glycan array binding signal (z-score),[30],-0.339
same,glycan array binding signal (z-score),[31],1.09
same,glycan array binding signal (z-score),[32],0.092
same,glycan array binding signal (z-score),[33],0.108
same,glycan array binding signal (z-score),[34],1.25
same,glycan array binding signal (z-score),[35],3.03
same,glycan array binding signal (z-score),[36],-0.293

# 3 records drawn at random from the list so far:
binder,measurement,setting,value
"rPitB (Streptococcus pneumoniae), A0A0I7U739 (protein) MSEIEIINAKKIYHDVPVIENLNITIPKGSLFTLLGASGCGKTTLLRMIAGFNSIKDGEFYFDDTKINNMEPSKRNIGLVFQNYAIFPHLTVRDNVAFGLMQKKVPKEELIQQTNKYLELMQIAQYAD",glycan array binding signal (z-score),[31],1.09
same,glycan array binding signal (z-score),[35],3.03
same,glycan array binding signal (z-score),[14],-0.133
